Data as given in the supplement of paper PMC12764529.
± gives the half width of the 95% confidence interval. For many entries, trypsin and chymotrypsin gave values far apart.

How the values were obtained:
[1] = folding stability dG unfold (combined trypsin and chymotrypsin); higher = more stable
Outline: (§1)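 Mini-proteins designed to be under 80 residues and free of cysteine were carried in a PA-tagged cDNA display construct and digested with trypsin and with chymotrypsin. Each protease was applied at 11 threefold-diluted concentrations, alongside a no-protease condition, before sequencing. K50 came from Bayesian fitting of the sequencing counts, and unfolding free energy was obtained by comparing it with a sequence-predicted unfolded-state K50 and a shared folded-state K50, for each protease separately or for both together. Designs were retained only if their AlphaFold2 dimer inter-PAE exceeded 15.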

[2] = folding stability dG unfold from trypsin proteolysis; higher = more stable
Outline: as §1

[3] = folding stability dG unfold from chymotrypsin proteolysis; higher = more stable
Outline: as §1

Sequence	folding stability dG unfold [1]	folding stability dG unfold [2]	folding stability dG unfold [3]
SAGGSAGGSAGGMEIIEKEETLDEETLKKLEEEGVPKSEATVKVTEVIYKEEYPEEGLKSAGGSAGGSAGGS [r10_1149_JUSTAS]	-0.137 ± 0.34 kcal/mol	0.359 ± 0.072 kcal/mol	-0.692 ± 0.28 kcal/mol
SAGGSAGGSAGGWDVEIEPFPDGFIFITAEGPNGRKLVIVVMVVPEGKLMYMIVPLDDLSAGGSAGGSAGGS [r10_140_TrROS]	3.34 ± 0.19 kcal/mol	2.35 ± 0.095 kcal/mol	3.71 ± 0.097 kcal/mol
SAGMISPKEAIELLKEGKEIHIYAPNPEDVEKFYNALRKELGLPKEEVEKIFEKVKIENIPADDPRFKKSAG [r5_368_TrMRF]	2.69 ± 0.15 kcal/mol	0.287 ± 0.12 kcal/mol	3.21 ± 0.035 kcal/mol
SAGGSAGGSAGGDPDGKPPKIDIEVYEIPFTMTMNDPDGPMRRMPMTITFLRIEIEDDASAGGSAGGSAGGS [r10_643_TrROS]	2.71 ± 0.39 kcal/mol	1.28 ± 0.16 kcal/mol	3.74 ± 0.24 kcal/mol
SAGGPDIKIKWKIEVNPDNGMIWLTMEIEVPNPNGDFYKVRADIYIPIVNPDDGKFPIFIMLEVEPVPSAGG [r13_715_TrROS]	4.76 ± 0.2 kcal/mol	3.36 ± 0.3 kcal/mol	4.74 ± 0.25 kcal/mol
SAGGSMPKGQEVKIEIEHRRHNGRRYWRVSVEVPNGKDIEIPFDDPEEMPPEMKKQIENLAKEIVKSAGGSA [r2_17_TrROS]	0.874 ± 0.26 kcal/mol	0.146 ± 0.11 kcal/mol	1.11 ± 0.25 kcal/mol
SAGGSAGGSAGPKIKIKKFPDFLIAEIEFPDGKKATAIFDPKTGKIIVFVGDKPIEIDIGSAGGSAGGSAGG [r11_846_TrMRF]	3.1 ± 0.07 kcal/mol	2.16 ± 0.059 kcal/mol	3.49 ± 0.09 kcal/mol
SPVQVKIEPPNGQRITWWFPPGGTVKEAKEQMRDMLQRALPPNLKIDVDKIDPGKPIEPGEPVRVEVRVKSA [r9_178_TrROS]	0.964 ± 0.39 kcal/mol	2.68 ± 0.15 kcal/mol	0.255 ± 0.82 kcal/mol
SAGGSAGGSAGMEPIRVTVTTQDTATGTTTTTTVTVPTDVPVEAVLAALDPALVTAVTVESAGGSAGGSAGG [r11_386_JUSTAS]	0.808 ± 0.11 kcal/mol	1.68 ± 0.061 kcal/mol	-0.172 ± 0.072 kcal/mol
SAGMIEINNVTPNYVMIKIWNPDNGKKWEIPIQYERDNGKPYSKDKALEEIKDIAKEFYPDFDIEVEPVSAG [r5_293_TrROS]	0.41 ± 0.25 kcal/mol	0.0269 ± 0.15 kcal/mol	0.727 ± 0.14 kcal/mol
SAGGWMTWEFELEDEDGKDIKIEVEQNPGNPWWRVKIEHKGGKPIPEIPIPADSPDDAIDQARDLLKSAGGS [r16_158_TrROS]	-0.149 ± 0.33 kcal/mol	0.17 ± 0.21 kcal/mol	-0.0698 ± 0.49 kcal/mol
SPIKINIEKDPEDPGTIKITFNYPDPQEARDFIRDIAEKLFGIKDMDVEHNPDNKTITHTIRLRPPGDPVSA [r9_1120_TrROS]	3.51 ± 0.34 kcal/mol	1.85 ± 0.19 kcal/mol	4.04 ± 0.15 kcal/mol
SKMIEIKPGEKIEITIEGADEVKITIFVNGKKKEITVKAGEKIEIELPEDVKEVYIIIKDKNGKEKIIKLSA [r9_143_TrROS_Hall]	3.73 ± 0.12 kcal/mol	2.03 ± 0.084 kcal/mol	4.06 ± 0.098 kcal/mol
SAGGSAGGSAGEAVLVSTPDGRLVLLVRFPDYVLAVVFDPGGRPRLYRIDPKTGRVELLPSAGGSAGGSAGG [r11_590_TrMRF]	3.99 ± 0.06 kcal/mol	2.18 ± 0.045 kcal/mol	4.395 ± 0.036 kcal/mol
SAGGIVFSFMLPDGFMIEFDLEWSPGYFKVDVEWYWGNEPQTMERTIPLPPPPPPPVPADNPDDAEEASAGG [r13_691_TrROS]	3.25 ± 0.33 kcal/mol	1.17 ± 0.13 kcal/mol	3.87 ± 0.075 kcal/mol
SAGGSAGGSAGGSGLPDEPVVTVTTETSIVEEGDGPVTVTTTTTTYPDGSVSTTLTTVASAGGSAGGSAGGS [r4_433_JUSTAS]	1.32 ± 0.13 kcal/mol	2.25 ± 0.087 kcal/mol	-0.0939 ± 0.086 kcal/mol
SKEKKTVTITLVLKVEDPEKLKPGDKVELSPELIEELKKAGFKITEIKVTVVKNEDGSLYVVVELKVELESA [r9_465_TrROS_Hall]	3.79 ± 0.14 kcal/mol	1.95 ± 0.21 kcal/mol	4.07 ± 0.15 kcal/mol
SAGGSAGGSAGGSDNKAILGDVPIKFYDKNGKPVITAKIGYFPDGRVVIYFPDGSKIEASAGGSAGGSAGGS [r10_972_TrMRF]	1.25 ± 0.038 kcal/mol	1.48 ± 0.04 kcal/mol	1.04 ± 0.023 kcal/mol
SAGGKPPKIKIETKTYYFGNYTLSEFKIEIPDTKVKAEAFLITPPDGKTYLIIKIGDKVIIIPLDKLSAGGS [r16_49_TrMRF]	4.16 ± 0.4 kcal/mol	2.74 ± 0.18 kcal/mol	4.85 ± 0.18 kcal/mol
SAGGSAGGSAGGKWVFLMFPIEISMTVYEPDDDGEWKQEKYTMEITIMFWLPPNDPDLLSAGGSAGGSAGGS [r10_1133_TrROS]	4.03 ± 0.16 kcal/mol	0.942 ± 0.043 kcal/mol	4.69 ± 0.094 kcal/mol
SAMDLKDLNIEKIEEIVKAILEKLGIPPENVEVKVEIKKGPDNSYYIVVEVTVKLGEKTYKFKFLIKGSSAG [r14_703_TrMRF]	4.5 ± 0.38 kcal/mol	2.6 ± 0.14 kcal/mol	4.94 ± 0.21 kcal/mol
SAGGSAGGSAGGSMIIRIETKDGKIIEIEIKEDEDKTPEEIAKELAKKYNIKKIEIFEPSAGGSAGGSAGGS [r4_116_TrROS_Hall]	3.44 ± 0.096 kcal/mol	3.27 ± 0.12 kcal/mol	3.57 ± 0.062 kcal/mol
SAGGSAMKLTLKDKKGNTLFLEVEEKTSEDGTPYYEVKIYYPNTNKVEYAEVPVENLEEFAKKLADSAGGSA [r15_92_TrMRF]	3.25 ± 0.18 kcal/mol	3.21 ± 0.09 kcal/mol	3.31 ± 0.086 kcal/mol
SAGGSAGGSMKVKTIELNGKTVELVEVDGKLILRVRDKDTGKEYLLVFDAETGEWKIVSLEDLSAGGSAGGS [r12_632_TrROS_Hall]	3.61 ± 0.13 kcal/mol	1.95 ± 0.068 kcal/mol	4.13 ± 0.072 kcal/mol
SAGGSAGGSAGGGPPTFILKTEVETFTLKKVSKSGDKLVFSESEVTVVTVTLVPENDAPSAGGSAGGSAGGS [r10_300_TrMRF]	4.41 ± 0.37 kcal/mol	2.69 ± 0.11 kcal/mol	4.9 ± 0.46 kcal/mol
WRIRVEIEMYNPDGDPMEMEIQIPVDKLQELRQEGEPFTKEELVDEIVEIIRDMMPEHGMPIEIKIVEIVPS [r1_174_TrROS]	1.76 ± 0.2 kcal/mol	1.64 ± 0.051 kcal/mol	1.76 ± 0.074 kcal/mol

Full records, quoted from the list. Values in the order: folding stability dG unfold [1] | folding stability dG unfold [2] | folding stability dG unfold [3]
WRIRVEIEMYNPDGDPMEMEIQIPVDKLQELRQEGEPFTKEELVDEIVEIIRDMMPEHGMPIEIKIVEIVPS [r1_174_TrROS] reads 1.76 ± 0.2 kcal/mol | 1.64 ± 0.051 kcal/mol | 1.76 ± 0.074 kcal/mol
SAGGSAGGSAGGMEIIEKEETLDEETLKKLEEEGVPKSEATVKVTEVIYKEEYPEEGLKSAGGSAGGSAGGS [r10_1149_JUSTAS] reads -0.137 ± 0.34 kcal/mol | 0.359 ± 0.072 kcal/mol | -0.692 ± 0.28 kcal/mol
